About 3,700 (1.2%) of roughly 300,000 compounds were called active. The inconclusive results got no clear call from the source; some entries with a clear call stand among them for comparison. Calls come from the whole dose curve; tested in HEK293 cells. Potencies beside an inconclusive call are fits to weak or partial responses and may not hold up.
Assay: qHTS for Inhibitors of binding or entry into cells for Lassa Virus; note: nearly all actives have a fitted effect of over 50% in size
Conditions: Lassa virus pseudotype entry inhibition, cell reporter; activity change, negative = inhibition: at 37.9 µM (top of the series) unless noted
% is set by controls: 0 for no effect and ±100 for the full control effect; potency is the fitted concentration of half-maximal effect.

Compound	Potency	activity change, negative = inhibition
CCOC(=O)c1c(NC(=O)/C=C/C(=O)O)sc(C)c1-c1ccc(C(C)(C)C)cc1	inconclusive: 35.5 µM [inhibitor, single point]	
COc1ccc(CCNc2ncccc2C#N)cc1OC	inconclusive: 10 µM [activator, partial curve, poor fit]	
CCc1n[n+](CC(=O)c2ccccc2)c(N)s1	active: 7.94 µM	
COc1cc2c(cc1OC)C1CC(=O)C(CC(C)C)CN1CC2 (stereo not drawn)	inconclusive: 32.6 µM [inhibitor, single point]	
COC(=O)c1cccc(NC(=O)NC(=O)c2ccc(Cl)cc2)c1	inconclusive: 2.24 µM [inhibitor, full curve, poor fit]	
O=S(=O)(c1ccc(Cl)cc1)c1nc(-c2cccc(Br)c2)oc1NCc1ccccc1	inconclusive: 6.31 µM [inhibitor, full curve, poor fit]	
CCc1cccc(C)c1NC(=O)Cn1c(=O)n(-c2ccc(C)cc2)c(=O)c2c1cnn2C	inconclusive: 2.82 µM [inhibitor, partial curve, poor fit]	
CCOC(=O)CN1C2=NCCN2c2ccccc21		inactive: -14.7%
COc1ccc(/C=C(/NC(=O)c2ccco2)C(=O)N2CCc3ccccc32)cc1OC	active: 7.94 µM	
CC(=O)Nc1ccc(NC(=O)CS(=O)(=O)c2cn(CC(=O)N3CCCC3)c3ccccc23)cc1		inactive: -6.28%
COc1ccccc1CN(Cc1cc2cc(C)ccc2[nH]c1=O)Cc1nnnn1Cc1ccco1	inconclusive: 5.62 µM [inhibitor, single point]	
Cc1ccc(C(=O)NC(=S)Nc2cccnc2Cl)cc1	inconclusive: 6.31 µM [activator, single point]	
CCOC(=O)CC1=C(C(=O)OCC)C(c2cccs2)C(C#N)=C(N)O1 (stereo not drawn)		inactive: -5.09%
Cc1ccc2nc(COc3ccccc3NC(=O)c3ccccc3C)cc(=O)n2c1	inconclusive: 1 µM [activator, full curve, poor fit]	
NNC(=O)CN1C(c2ccc(Cl)cc2)=Nc2ccc(Br)cc2C1c1ccccc1 (stereo not drawn)		inactive: -0.212%
COc1ccccc1C(=O)Nc1ccc2c(c1)CCCN2C(=O)c1ccccc1	inconclusive: 15.8 µM [inhibitor, single point]	
c1coc(CN=C2NC(=NCc3ccco3)c3ccccc32)c1	inconclusive: 32.6 µM [inhibitor, single point]	
Fc1ccc2c(c1)nnn2C1CCN(Cc2c(Cl)cccc2Cl)CC1	inconclusive: 7.08 µM [inhibitor, partial curve, poor fit]	
Cc1ccc(NC(=O)CN(C)C(=O)CSc2ccccc2F)cc1		inactive: -24.1%
CC(C)(C)c1ccc(OCC(=O)N/N=C/c2ccc(N3CCOCC3)cc2)cc1	active: 0.092 µM	
CC(CN1CCOCC1)OC(=O)c1ccccc1 (stereo not drawn)	inconclusive: 35.5 µM [inhibitor, single point]	
N/C(=N\OC(=O)CCc1ccccc1)c1ccccc1Cl	inconclusive: 31.6 µM [activator, single point]	
COc1cc(C(=O)N2CCC(C(N)=O)CC2)ccc1OCc1c(C)noc1C		inactive: 6.6% [at 46.1 µM]

Compound	Potency	activity change, negative = inhibition
CCOC(=O)C1CCCN(c2nc3c(S(=O)(=O)c4ccc(Br)cc4)nnn3c3ccsc23)C1 (stereo not drawn)	inconclusive: 15.8 µM [inhibitor, single point]	
Cc1ccc(NC(=O)CCn2nc(C)cc2C)cc1	inconclusive: 25.9 µM [activator, single point]	
COc1ccc(S(=O)(=O)c2nnn(-c3cccc(OC)c3)c2N)cc1	inconclusive: 11.2 µM [inhibitor, partial curve]	
O=C(COc1ccc2ccccc2c1Br)Nc1ncn[nH]1	inconclusive: 11.6 µM [inhibitor, partial curve, poor fit]	
CCc1cc(-c2n[nH]c(C)c2-c2nc(C)cs2)c(O)cc1OC	inconclusive: 10 µM [inhibitor, partial curve, poor fit]	
O=C(/C=C/c1ccco1)Nc1ccc(F)cc1		inactive: -15.9% [at 46.1 µM]
COc1cccc(NP(=O)(Oc2ccc(Cl)cc2)Oc2ccc(Cl)cc2)c1	inconclusive: 29.1 µM [inhibitor, single point]	
O=C(CSc1nc2ccccc2c(=O)n1-c1ccccc1)c1cccc([N+](=O)[O-])c1	inconclusive: 7.94 µM [inhibitor, partial curve, poor fit]	
Cc1csc(NC(=O)c2nc3nc(C)cc(C)n3n2)n1	inconclusive: 15.8 µM [inhibitor, single point]	
COc1ccccc1NC(=O)Nc1ccc2c(c1)nc(C)n2C	inconclusive: 17.8 µM [inhibitor, single point]	
CCOc1ccc(C(=O)CCC(=O)NNC(=O)CCN2CCN(c3ccccc3)CC2)cc1		inactive: 20.9%
CCOc1ccc(C(=O)Nc2ccc(N3CCN(C(=O)c4ccco4)CC3)cc2)cc1Br	inconclusive: 2.24 µM [inhibitor, partial curve, poor fit]	
Cc1noc(C)c1COc1ccccc1C(=O)N1CCN(S(=O)(=O)c2ccccc2C(F)(F)F)CC1		inactive: -10.9%
CCC(C)NCCOc1ccc(C(C)(C)c2ccccc2)cc1 (stereo not drawn)	inconclusive: 15.8 µM [inhibitor, single point]	
O=c1c2c(nc3cc(-c4ccccc4Cl)[nH]n13)CCS2		inactive: -25.8% [at 46.1 µM]
COc1cc(OC)cc(C(=O)Nc2cc(-c3nc4ccccc4[nH]3)ccc2C)c1	inconclusive: 10 µM [inhibitor, partial curve, poor fit]	
Cc1ccc(N(CC(=O)Nc2cccc(Cl)c2C)S(=O)(=O)c2c(C)noc2C)cc1		inactive: -0.808% [at 46.1 µM]
COc1ccc(Cn2c(=O)[nH]c3cc(C(=O)NCCC(C)C)ccc3c2=O)cc1	inconclusive: 1.12 µM [activator, full curve]	
Cc1cccc(Oc2nc3ccccn3c(=O)c2/C=C(\C#N)C(=O)NC2CCS(=O)(=O)C2)c1C (stereo not drawn)	inconclusive: 11.2 µM [inhibitor, partial curve, poor fit]	
O=[N+]([O-])c1ccc(C2=Nc3cc(Cl)ccc3OC2)cc1		inactive: 2.52% [at 46.1 µM]
CN1CCN(c2ccc(C(=O)c3ccc(Br)cc3)cc2[N+](=O)[O-])CC1		inactive: 16.3%
COc1ccc(/C=N/NC(=O)c2nonc2C)cc1		inactive: -15.5%
COc1ccccc1N(CC(=O)N1CCN(c2ccc(F)cc2)CC1)S(=O)(=O)c1ccc(C)cc1	inconclusive: 10 µM [inhibitor, partial curve, poor fit]	

Single values from above:
Value for CCc1cc(-c2n[nH]c(C)c2-c2nc(C)cs2)c(O)cc1OC under Potency: inconclusive: 10 µM [inhibitor, partial curve, poor fit]
Value for Cc1csc(NC(=O)c2nc3nc(C)cc(C)n3n2)n1 under Potency: inconclusive: 15.8 µM [inhibitor, single point]
Value for CCC(C)NCCOc1ccc(C(C)(C)c2ccccc2)cc1 (stereo not drawn) under Potency: inconclusive: 15.8 µM [inhibitor, single point]
Value for CCOc1ccc(C(=O)CCC(=O)NNC(=O)CCN2CCN(c3ccccc3)CC2)cc1 under activity change, negative = inhibition: inactive: 20.9%

The listing continues:

Compound	Potency	activity change, negative = inhibition
COc1ccc(-n2cc(C(=O)N(CCN(C)C)Cc3ccccc3)c3ccccc3c2=O)cc1		inactive: -2.26% [at 46.1 µM]
CC(=O)COc1ncn(-c2ccccc2)n1	inconclusive: 14.1 µM [activator, single point]	
CCCCOC(=O)C1C2CCC(O2)C1C(=O)OCC (stereo not drawn)		inactive: 19%
COc1ccc(C2=NO[C@@](CC(=O)O)(C(=O)Nc3ccc4c(c3)OCCO4)C2)cc1		inactive: 27.8% [at 46.1 µM]
CCNC(=O)[C@H]1O[C@@H](n2cnc3c(N)ncnc32)[C@H](O)[C@@H]1O		inconclusive: -47.2% [inhibitor]
Cc1ccc(NC(=S)c2nc3ccccc3[nH]2)cc1	inconclusive: 35.5 µM [inhibitor, single point]	
COCCNC(=S)N1CCC(c2nc(-c3ccc(F)cc3)no2)CC1	inconclusive: 7.08 µM [inhibitor, partial curve, poor fit]	
COc1ccccc1Nc1nc(C)cc(C)n1	inconclusive: 35.5 µM [activator, single point]	
CC(/C=C/c1ccco1)=N/NC(=O)c1ccccc1Cl		inactive: 4.49%
O=C(C1CCN(S(=O)(=O)N2CCCCC2)CC1)N1CCCCC1	inconclusive: 6.31 µM [inhibitor, single point]	
O=C(c1ccccc1F)N1CCCC(C(=O)N2CCN(c3ccccc3)CC2)C1 (stereo not drawn)		inactive: 7.75%
O=[N+]([O-])c1ccc(NS(=O)(=O)c2ccccc2)c(Cl)c1	inconclusive: 35.5 µM [inhibitor, single point]	
O=C(NCc1ccccn1)[C@@H]1C[C@H]1[C@@H](NP(=O)(c1ccccc1)c1ccccc1)c1ccccc1	active: 6.51 µM	
Cc1ccc(C2CC(c3ccco3)=NN2S(C)(=O)=O)cc1 (stereo not drawn)	inconclusive: 22.4 µM [activator, partial curve, poor fit]	
CC(Oc1ccc(F)cc1)C(=O)Nc1cc(S(=O)(=O)N2CCOCC2)ccc1N1CCCCC1 (stereo not drawn)	inconclusive: 7.94 µM [inhibitor, partial curve, poor fit]	
Fc1ccc(N/N=C/c2ccc(N3CCOCC3)cc2)c(F)c1	inconclusive: 31.6 µM [inhibitor, single point]	
O=C(/C=C/c1cn(CC(O)CN2CCCCC2)c2ccccc12)c1ccccc1 (stereo not drawn)	inconclusive: 22.4 µM [inhibitor, single point]	
Cc1ccc(C(=O)CCS(=O)(=O)c2ccc(Br)cc2)cc1	inconclusive: 11.2 µM [inhibitor, partial curve, poor fit]	
CN(C)c1ccc(/C=C/C=C/c2sc3ccccc3[n+]2C)cc1	inconclusive: 7.08 µM [inhibitor, partial curve, poor fit]	
CCOC(=O)CCSc1nc(C)c2cc(C)ccc2n1	inconclusive: 23.1 µM [inhibitor, single point]	
Cn1cc(/C=C/c2cc[n+](C)cc2)c2cc(Cl)ccc21	inconclusive: 2.82 µM [inhibitor, partial curve, poor fit]	
Cc1ccc(S(=O)(=O)Nc2ccc(NC(=O)Nc3cccc(C(F)(F)F)c3)cc2)cc1	inconclusive: 22.4 µM [inhibitor, single point]	

From PubChem BioAssay AID540256 (National Center for Advancing Translational Sciences (NCATS), 2011)
